{
  "sequences": {"note": "By UniProt entry, the sequences of proteins in these tests, tags left out. Residues count along the entry.", "UniProt O60603, 21-784 limits assumed": "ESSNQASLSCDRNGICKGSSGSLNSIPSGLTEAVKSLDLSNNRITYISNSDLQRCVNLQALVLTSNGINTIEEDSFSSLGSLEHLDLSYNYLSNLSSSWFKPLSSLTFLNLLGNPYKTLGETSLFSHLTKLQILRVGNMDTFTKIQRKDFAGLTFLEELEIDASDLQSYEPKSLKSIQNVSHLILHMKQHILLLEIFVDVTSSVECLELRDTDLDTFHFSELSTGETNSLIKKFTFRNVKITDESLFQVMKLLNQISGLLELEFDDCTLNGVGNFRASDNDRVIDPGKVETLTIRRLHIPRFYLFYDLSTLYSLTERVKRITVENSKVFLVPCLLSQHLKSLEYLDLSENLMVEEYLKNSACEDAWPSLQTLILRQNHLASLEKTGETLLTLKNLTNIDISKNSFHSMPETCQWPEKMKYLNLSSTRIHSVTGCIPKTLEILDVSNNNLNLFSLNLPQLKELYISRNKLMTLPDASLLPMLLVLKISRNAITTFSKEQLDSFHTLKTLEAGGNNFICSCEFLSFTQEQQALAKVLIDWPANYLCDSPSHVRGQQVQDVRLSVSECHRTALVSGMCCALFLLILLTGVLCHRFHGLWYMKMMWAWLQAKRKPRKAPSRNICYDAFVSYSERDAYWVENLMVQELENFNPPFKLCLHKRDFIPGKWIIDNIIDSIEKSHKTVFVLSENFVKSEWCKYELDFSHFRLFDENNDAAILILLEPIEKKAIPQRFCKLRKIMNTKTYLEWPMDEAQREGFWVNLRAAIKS"},
  "source": "patent US11951094B2",
  "about": "“TLR2 modulator compounds, pharmaceutical compositions and uses thereof” (Axial Therapeutics, Inc., priority 2020, dated 2024)",
  "biological_target": "TLR2 (Homo sapiens, UniProt O60603)",
  "test": "TLR2 agonist screening assay, HEK-Blue TLR2 reporter cell line (NF-kB-driven SEAP, absorbance at 600 nm)",
  "type": "cell-based",
  "conditions": "read-out: TLR2 (HEK-Blue) EC50; HEK-Blue TLR2 reporter cells, agonist mode; average of all runs (Table 4)",
  "note": "Structures were worked out from names or drawings and are uncertain.",
  "data": [
    {"compound": "CCCCCCCCCCCCCCC(=O)NC1CC(=O)N(Cc2ccc(C(=O)N3C[C@@H](C(=O)N[C@H]4C[C@@H]4c4ccccc4)[C@H](C(=O)N[C@H]4C[C@@H]4c4ccccc4)C3)cc2)C1", "note": "(stereo partly shown)", "values": [
      {"measurement": "EC50", "result": "351 to 1000", "unit": "nM"}
    ]}
  ]
}
